No constants are given. Whether binding was seen depends on the method and setting. For some assays here: Tags and fused reporters may be left off the sequences shown.
B1: Kluyveromyces lactis urea carboxylase (isolated UC part of KlUA) (domain or fragment, UniProt Q6CP22 617-1829)
chain: EAQKKKPFETVLIANRGEIAVRIMKTLKRMGIKSVAVYSDPDKYSQHVTDADFSVALHGRTAAETYLDIDKIINAAKKTGAQAIIPGYGFLSENADFSDRCSQENIVFVGPSGDAIRKLGLKHSAREIAERAKVPLVPGSGLIKDAKEAKEVAKKLEYPVMVKSTAGGGGIGLQKVDSEDDIERVFETVQHQGKSYFGDAGVFMERFVNNARHVEIQMMGDGFGKAIAIGERDCSLQRRNQKVIEETPAPNLPEATRAKMRAASERLGSLLKYKCAGTVEFIYDEQRDEFYFLEVNARLQVEHPITEMVTGLDLVEWMLRIAANDSPDFDNTKIEVSGASIEARLYAENPVKDFRPSPGQLTSVSFPSWARVDTWVKKGTNVSAEYDPTLAKIIVHGKDRNDAIMKLNQALNETAVYGCITNIDYLRSIASSKMFKEAKVATKVLDSFDYKPCAFEVLAPGANTSVQDYPGRTGYWRIGVPPSGPMDSYSFRLANRVVGNNSKSPALEITLNGPKLLFHTETVIAVSGGTVSCTLNDAQIAQNEPIEVKRGDILSVGKVTVGCRAYLSIRGGIDVPEYLGSRSTFAMGNMGGYNGRILKLGDVLFLNQPELSVSSLPAPDFEPQAAPKSLLPTLSTNKDWKIGVTCGPHGSIDLFKEEYIEQFFNDKWKVHYNSNRFGVRLIGPKPKWARSDGGEAGLHPSNAHDYVYSLGAINFTGDEPVIITCDGPSLGGFVCQAVVAEAELWKVGQLTPGDTIQFVPLSYGVARQLKESQDKSIDNFEEGSLLELSDDKILPKYENPILAVLPKKSDLSPKVTYRQAGDRYILVEYGELEFDLNICYRINRLIHQVERHQTVGIVEMSQGVRSVLIEFDGSKINQKALLKCLIAYESEIQFDKNWNVKSKIFKLPMAFEDSKTLDCVTRYRETIRSEAPWLPNNVDFIADVNDIDRNDVKNMLYSAKFMVLGLGDVFLGSPCAVPLDPRHRYLGTKYNPSRTYTARGVVGIGGMYMCIYNAEGSPGGYQLVGRTITAWDKLVIGDHPIDHPWLLTPFDQVEFYPVTEEELEVIIEDNDNGKFKIDVEESIFDHKEYLAWINENIDSIVAFQEAQGGEKADEFARLIQVANAELKKSGDDKPQDVEEYPDDAELLYSEYTGRFWKPVAAVGDHVEAGDGVIIIEAMKTEMVVGATKSGKVYKILHKNGDMVEAGDLVAVIV

Columns and labels:
[1] = target: KlUA G559E/G572E mutant (Kluyveromyces lactis) (UniProt Q6CP22); assay: SEC; analytical gel filtration, Superose 6 HR column; 0.25 mg protein injected; 20 mM Tris/HCl pH 8.0, 200 mM NaCl; calibrated with standards of 29-669 kDa; both purified
[2] = target: T1, Kluyveromyces lactis allophanate hydrolase (isolated AH part of KlUA) (Kluyveromyces lactis) (UniProt Q6CP22); assay: as above
T1 sequence: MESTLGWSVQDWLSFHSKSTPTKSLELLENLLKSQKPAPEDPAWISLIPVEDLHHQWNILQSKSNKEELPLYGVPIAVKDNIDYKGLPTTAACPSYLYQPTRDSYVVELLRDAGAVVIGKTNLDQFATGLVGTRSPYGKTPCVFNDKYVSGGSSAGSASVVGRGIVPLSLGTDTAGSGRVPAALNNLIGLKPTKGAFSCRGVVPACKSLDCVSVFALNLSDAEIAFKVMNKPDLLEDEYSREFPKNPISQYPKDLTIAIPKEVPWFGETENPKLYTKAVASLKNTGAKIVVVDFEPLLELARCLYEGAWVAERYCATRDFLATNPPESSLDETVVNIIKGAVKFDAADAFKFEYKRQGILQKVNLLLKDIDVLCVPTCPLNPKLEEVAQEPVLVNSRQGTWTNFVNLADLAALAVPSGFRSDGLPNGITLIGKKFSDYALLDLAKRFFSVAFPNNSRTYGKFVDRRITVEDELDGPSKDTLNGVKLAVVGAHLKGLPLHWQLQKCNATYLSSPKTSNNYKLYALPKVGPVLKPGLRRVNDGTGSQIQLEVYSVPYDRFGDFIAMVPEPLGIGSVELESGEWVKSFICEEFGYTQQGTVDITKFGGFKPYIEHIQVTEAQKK

Molecule | binding [1] | binding [2]
KlUA G559E/G572E mutant (from UniProt Q6CP22 1-1829) (enzyme) | no binding (tested: 0.25 mg of protein injected) | 
B1 |  | no binding (tested: 0.25 mg of protein injected)
